{"source": "PubChem BioAssay AID1224828 (NIAID, 2016)", "test": "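Find genes required for NF-kappaB p65 moving into the nucleus after LPS in mouse macrophages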 (primary screen)", "system": "mouse RAW264.7 G9 macrophage reporter cells (GFP-p65, Tnf promoter-mCherry)", "knock-down reagent": "siRNA pool against mouse genes, 100 nM", "timing": "2 days siRNA transfection, then 40 min LPS before fixation", "conditions": "LPS (Salmonella minnesota R595) at 10 ng/ml", "read-out": "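Imaged p65 nuclear translocation ratio, normalised to the plate median, converted to robust z-scores and averaged across two replicates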", "scale": "p65 translocation robust z-score: higher = more nuclear NF-kappaB p65 after LPS than the plate median; nuclear/cytoplasmic p65 ratio: higher = more nuclear NF-kappaB p65", "active means": "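Called active when z exceeds 3.3 or falls under -1.56 (median of Tlr4 controls), giving activity score of at least 50; no calls for control wells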", "meaning of the calls": "active = hit (p65 shift raised or lowered); inactive = no clear change", "note": "This is an unselected part of about 17,000 reagents tested. Of all reagents, 762 (4.5%) are marked active. 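Active calls include both raised and lowered p65 entry, mostly lowered; wells with fewer than 50 cells lack a z-score.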 Raw values are not corrected between plates. Reagent sequences are not shown."}
{"gene symbol": "Atad3a", "p65 translocation robust z-score": -0.97, "nuclear/cytoplasmic p65 ratio, rep 1": 1.33, "nuclear/cytoplasmic p65 ratio, rep 2": 1.51, "low cell count flag": "enough cells to score", "activity call": "inactive"}
{"gene symbol": "Slfn4", "p65 translocation robust z-score": 1.71, "nuclear/cytoplasmic p65 ratio, rep 1": 1.53, "nuclear/cytoplasmic p65 ratio, rep 2": 1.42, "low cell count flag": "enough cells to score", "activity call": "inactive"}
{"gene symbol": "Myl6", "p65 translocation robust z-score": 0.87, "nuclear/cytoplasmic p65 ratio, rep 1": 1.48, "nuclear/cytoplasmic p65 ratio, rep 2": 1.53, "low cell count flag": "enough cells to score", "activity call": "inactive"}
{"gene symbol": "Klk9", "nuclear/cytoplasmic p65 ratio, rep 1": 1.31, "nuclear/cytoplasmic p65 ratio, rep 2": 1.39, "low cell count flag": "fewer than 50 cells per well; well left out of scoring", "activity call": "inactive"}
{"gene symbol": "Ppm1k", "p65 translocation robust z-score": 3.14, "nuclear/cytoplasmic p65 ratio, rep 1": 1.66, "nuclear/cytoplasmic p65 ratio, rep 2": 2.1, "low cell count flag": "enough cells to score", "activity call": "inactive"}
{"gene symbol": "Dusp19", "p65 translocation robust z-score": -2.08, "nuclear/cytoplasmic p65 ratio, rep 1": 1.12, "nuclear/cytoplasmic p65 ratio, rep 2": 1.18, "low cell count flag": "enough cells to score", "activity call": "active"}
{"gene symbol": "Etv2", "p65 translocation robust z-score": 2.18, "nuclear/cytoplasmic p65 ratio, rep 1": 1.89, "nuclear/cytoplasmic p65 ratio, rep 2": 1.78, "low cell count flag": "enough cells to score", "activity call": "inactive"}
{"gene symbol": "Copg1", "p65 translocation robust z-score": -1.26, "nuclear/cytoplasmic p65 ratio, rep 1": 1.38, "nuclear/cytoplasmic p65 ratio, rep 2": 1.58, "low cell count flag": "enough cells to score", "activity call": "inactive"}
{"gene symbol": "Mycbp", "p65 translocation robust z-score": -0.51, "nuclear/cytoplasmic p65 ratio, rep 1": 1.76, "nuclear/cytoplasmic p65 ratio, rep 2": 1.47, "low cell count flag": "enough cells to score", "activity call": "inactive"}
{"gene symbol": "Serinc1", "nuclear/cytoplasmic p65 ratio, rep 1": 1.56, "nuclear/cytoplasmic p65 ratio, rep 2": 1.26, "low cell count flag": "fewer than 50 cells per well; well left out of scoring", "activity call": "inactive"}
{"gene symbol": "B4galnt3", "p65 translocation robust z-score": -0.2, "nuclear/cytoplasmic p65 ratio, rep 1": 1.55, "nuclear/cytoplasmic p65 ratio, rep 2": 1.68, "low cell count flag": "enough cells to score", "activity call": "inactive"}

4 entries from above in another layout.
gene symbol	p65 translocation robust z-score	nuclear/cytoplasmic p65 ratio, rep 1	nuclear/cytoplasmic p65 ratio, rep 2	low cell count flag	activity call
Slfn4	1.71	1.53	1.42	enough cells to score	inactive
Myl6	0.87	1.48	1.53	enough cells to score	inactive
Klk9		1.31	1.39	fewer than 50 cells per well; well left out of scoring	inactive
Ppm1k	3.14	1.66	2.1	enough cells to score	inactive

Next records follow:
{"gene symbol": "2610524H06Rik", "nuclear/cytoplasmic p65 ratio, rep 1": 1.5, "nuclear/cytoplasmic p65 ratio, rep 2": 1.66, "low cell count flag": "fewer than 50 cells per well; well left out of scoring", "activity call": "inactive"}
{"gene symbol": "Nefl", "p65 translocation robust z-score": -1.39, "nuclear/cytoplasmic p65 ratio, rep 1": 1.24, "nuclear/cytoplasmic p65 ratio, rep 2": 1.18, "low cell count flag": "enough cells to score", "activity call": "inactive"}
{"gene symbol": "Ccr3", "p65 translocation robust z-score": 0.61, "nuclear/cytoplasmic p65 ratio, rep 1": 1.59, "nuclear/cytoplasmic p65 ratio, rep 2": 1.54, "low cell count flag": "enough cells to score", "activity call": "inactive"}
{"gene symbol": "Ncf4", "p65 translocation robust z-score": 1.29, "nuclear/cytoplasmic p65 ratio, rep 1": 2.11, "nuclear/cytoplasmic p65 ratio, rep 2": 1.68, "low cell count flag": "enough cells to score", "activity call": "inactive"}
{"gene symbol": "Mthfsd", "p65 translocation robust z-score": -2.11, "nuclear/cytoplasmic p65 ratio, rep 1": 1.16, "nuclear/cytoplasmic p65 ratio, rep 2": 1.21, "low cell count flag": "enough cells to score", "activity call": "active"}
{"gene symbol": "Tmem164", "p65 translocation robust z-score": 0.16, "nuclear/cytoplasmic p65 ratio, rep 1": 1.54, "nuclear/cytoplasmic p65 ratio, rep 2": 1.62, "low cell count flag": "enough cells to score", "activity call": "inactive"}
{"gene symbol": "5730453H04RIK", "p65 translocation robust z-score": -0.63, "nuclear/cytoplasmic p65 ratio, rep 1": 1.27, "nuclear/cytoplasmic p65 ratio, rep 2": 1.39, "low cell count flag": "enough cells to score", "activity call": "inactive"}
{"gene symbol": "Zbtb48", "p65 translocation robust z-score": 0.73, "nuclear/cytoplasmic p65 ratio, rep 1": 1.75, "nuclear/cytoplasmic p65 ratio, rep 2": 1.66, "low cell count flag": "enough cells to score", "activity call": "inactive"}
{"gene symbol": "Or8d1", "p65 translocation robust z-score": -0.23, "nuclear/cytoplasmic p65 ratio, rep 1": 1.62, "nuclear/cytoplasmic p65 ratio, rep 2": 1.4, "low cell count flag": "enough cells to score", "activity call": "inactive"}
{"gene symbol": "Msi1", "p65 translocation robust z-score": -1.18, "nuclear/cytoplasmic p65 ratio, rep 1": 1.5, "nuclear/cytoplasmic p65 ratio, rep 2": 1.49, "low cell count flag": "enough cells to score", "activity call": "inactive"}
{"gene symbol": "BC051665", "p65 translocation robust z-score": -0.1, "nuclear/cytoplasmic p65 ratio, rep 1": 1.62, "nuclear/cytoplasmic p65 ratio, rep 2": 1.58, "low cell count flag": "enough cells to score", "activity call": "inactive"}
{"gene symbol": "Acvr2a", "p65 translocation robust z-score": -0.48, "nuclear/cytoplasmic p65 ratio, rep 1": 1.62, "nuclear/cytoplasmic p65 ratio, rep 2": 1.32, "low cell count flag": "enough cells to score", "activity call": "inactive"}
{"gene symbol": "Nt5dc3", "p65 translocation robust z-score": 1.06, "nuclear/cytoplasmic p65 ratio, rep 1": 1.52, "nuclear/cytoplasmic p65 ratio, rep 2": 1.72, "low cell count flag": "enough cells to score", "activity call": "inactive"}
{"gene symbol": "Prkg1", "p65 translocation robust z-score": -0.09, "nuclear/cytoplasmic p65 ratio, rep 1": 1.75, "nuclear/cytoplasmic p65 ratio, rep 2": 1.3, "low cell count flag": "enough cells to score", "activity call": "inactive"}
{"gene symbol": "Zfp354b", "p65 translocation robust z-score": -0.12, "nuclear/cytoplasmic p65 ratio, rep 1": 1.47, "nuclear/cytoplasmic p65 ratio, rep 2": 1.18, "low cell count flag": "enough cells to score", "activity call": "inactive"}
{"gene symbol": "Exosc4", "p65 translocation robust z-score": -0.85, "nuclear/cytoplasmic p65 ratio, rep 1": 1.4, "nuclear/cytoplasmic p65 ratio, rep 2": 1.36, "low cell count flag": "enough cells to score", "activity call": "inactive"}
